Reference: the supplement of paper PMC5355238
Counter-ions that a name gives are not always drawn. The list shows a part of the results. Many values rest on one well or one pass, so single values are uncertain.

What follows are compounds tested on Reh (assay: S-phase gammaH2AX median, Z-score vs plate median (drug alone); higher = more S-phase DNA damage). Settings: MK1775 concentration 0 nM; 10 µM; 4 h.

SMILES	S-phase gammaH2AX median (Z-score)
Clc1cccc(N2CCNCC2)c1 [1-(3-Chlorophenyl)piperazine dihydrochloride]	0.107
CC[C@@]1(O)C(=O)OCc2c1cc1n(c2=O)Cc2cc3ccccc3nc2-1 [(S)-(+)-Camptothecin]	10.9
COc1ccc2c3c1O[C@H]1C(=O)CC[C@@]4(O)C(C2)N(CC2CC2)CCC314 (single isomer, unassigned; (-)) [(-)-3-Methoxynaltrexone hydrochloride]	-0.0993
Cc1c(C(=O)c2cccc3ccccc23)c2cccc3c2n1[C@H](CN1CCOCC1)CO3 [( R)-(+)-WIN 55,212-2 mesylate]	-0.821
CCN(CC)C(=O)NC1C=C2c3cccc4[nH]cc(c34)CC2N(C)C1 (stereo not drawn) [S-(-)-Lisuride]	0.0237
CC(CCc1ccccc1)NC(C)C(O)c1ccc(O)cc1 (configuration not stated) [Nylidrin hydrochloride]	0.0591
CC1C2Cc3ccc(O)cc3C1(C)CCN2CC1CC1 (single isomer, unassigned; (+)) [(+)-Cyclazocine]	-0.0408
CN1C[C@H](C(=O)N[C@]2(C)O[C@@]3(O)[C@@H]4CCCN4C(=O)[C@H](Cc4ccccc4)N3C2=O)C[C@@H]2c3cccc4[nH]cc(c34)C[C@H]21 [Dihydroergotamine methanesulfonate]	-0.164
O=C1NCN(c2ccccc2)C12CCN(CC1COc3ccccc3O1)CC2 (configuration not stated) [Spiroxatrine]	-0.254
C[N+]1(C)[C@@H]2CC[C@H]1C[C@@H](OC(=O)C(CO)c1ccccc1)C2 (some centres not stated) [Atropine methyl nitrate]	-0.00194
C[N+]1(C)[C@@H]2CC[C@H]1C[C@@H](OC(=O)C(CO)c1ccccc1)C2 (some centres not stated) [Atropine methyl bromide]	0.0175
c1ccc2nc(N3CCNCC3)ccc2c1 [Quipazine dimaleate]	0.0639
C[N+](C)(C)CCCCCCCCCC[N+](C)(C)C [Decamethonium dibromide]	-0.142
CN1CCC(c2c[nH]c3ccc(O)cc23)CC1	-0.0252
CC(C)[C@@]1(NC(=O)[C@@H]2C[C@@H]3c4cccc5[nH]cc(c45)C[C@H]3N(C)C2)O[C@@]2(O)[C@@H]3CCCN3C(=O)[C@H](Cc3ccccc3)N2C1=O [Dihydroergocristine methanesulfonate]	-0.132
CC1Cc2cc3c(cc2C(c2ccc(N)cc2)=NN1)OCO3 (configuration not stated)	0.296
CC(N)Cc1c[nH]c2ccc(OCc3cccs3)cc12 (configuration not stated)	-0.0971
NC(=O)CN1CC(O)CC1=O (configuration not stated) [Oxiracetam]	0.0639
COc1ccc(CNC(=O)/C=C/c2ccc3[nH]cc(CCN(C)C)c3c2)cc1	0.0155
C[N+](C)(C)CC#CCN1CCCC1=O [Oxotremorine methiodide]	-0.0355
NC(=O)c1ccc(OCC(O)CN2CC=C(c3ccc(F)cc3)CC2)cc1 (configuration not stated)	0.0601
C[N+]1(C)CCOC(O)(c2ccc(-c3ccc(C4(O)C[N+](C)(C)CCO4)cc3)cc2)C1 (configuration not stated) [Hemicholinium-3]	0
COc1ccc(-n2nc(C(F)(F)F)cc2-c2ccc(Cl)cc2)cc1	0.0601
Nc1ccncc1 [4-Aminopyridine]	-0.0932

SMILES	S-phase gammaH2AX median (Z-score)
COc1cc(C=C(C#N)C#N)cc(O)c1O [Tyrphostin AG 34]	0.0868
CO[C@H]1CC=C2CCN3CCC4=C(CC(=O)OC4)[C@]23C1 [Dihydro-beta-erythroidine hydrobromide]	-0.0787
Cc1[nH]c2ccc(O)cc2c1CCN [2-Methyl-5-hydroxytryptamine maleate]	-0.423
C=CCN1CCc2cccc3c2[C@H]1Cc1ccc(O)c(O)c1-3 [R(-)-N-Allylnorapomorphine hydrobromide]	0.173
COc1ccc(C(=O)N2CCCC2=O)cc1 [Aniracetam]	-0.0621
CCCCCCCCCCCCCC(=O)O[C@@H]1[C@@H](C)[C@@]2(O)[C@@H](C=C(CO)C[C@]3(O)C(=O)C(C)=C[C@@H]23)[C@@H]2C(C)(C)[C@]12OC(C)=O [Phorbol 12-myristate 13-acetate]	-0.284
O=C(O)CCCc1ccc(N(CCCl)CCCl)cc1 [Chlorambucil]	0.596
NCC(O)c1cc(O)c(O)cc1F (configuration not stated) [6-Fluoronorepinephrine hydrochloride]	0.0155
CCS(=O)(=O)Nc1cccc(C(=C2CCCCC2)c2cnc[nH]2)c1	-0.0777
CC1=C[C@@H]2c3cccc4[nH]cc(c34)C[C@H]2N(C)C1 [Agroclavine]	0.173
O=c1[nH]c2ccccc2n1CCCN1CCC(n2c(=O)[nH]c3cc(Cl)ccc32)CC1 [Domperidone]	-0.0283
C=CCN1CC[C@]23c4c5ccc(O)c4O[C@H]2/C(=N/NC(=O)c2ccccc2)CC[C@@]3(O)[C@H]1C5 [Naloxone benzoylhydrazone]	0.0497
NC(N)=NOCC[C@H](N)C(=O)O [L-Canavanine sulfate]	-0.0699
CCN(CC)C(=O)NC1CC2c3cccc4[nH]cc(c34)CC2N(C)C1 (stereo not drawn) [R(+)-Terguride]	-0.254
CCN(CC)C(=O)N[C@H]1C=C2c3cccc4[nH]cc(c34)C[C@H]2N(C)C1 [R(+)-Lisuride hydrogen maleate]	0.0733
S=C(NC1CCCCC1)N1CCC(c2cnc[nH]2)CC1 [Thioperamide maleate]	0.3
COc1ccc2c(c1)[C@]13CCCC[C@@H]1[C@H](C2)N(C)CC3 [Dextromethorphan hydrobromide monohydrate]	-0.0157
COC[C@H]1OC(=O)c2coc3c2[C@@]1(C)C1=C(C3=O)[C@@H]2CCC(=O)[C@@]2(C)C[C@H]1OC(C)=O [Wortmannin from Penicillium funiculosum]	-0.214
Clc1cnc(Oc2ccc(Oc3ncc(Cl)cc3Cl)cc2)c(Cl)c1	0.16
CNCCc1ccc(O)c(O)c1 [N-Methyldopamine hydrochloride]	0.0283
CC(Cc1ccc(O)cc1)NCC(O)c1cc(O)cc(O)c1 (configuration not stated) [Fenoterol hydrobromide]	-0.11
Cn1cnc(CCN)c1 [1-Methylhistamine dihydrochloride]	-0.0118
C1CCc2nnnn2CC1 [Pentylenetetrazole]	-0.0568

Three entries picked at random from the list so far:
SMILES	S-phase gammaH2AX median (Z-score)
Cc1[nH]c2ccc(O)cc2c1CCN [2-Methyl-5-hydroxytryptamine maleate]	-0.423
C=CCN1CC[C@]23c4c5ccc(O)c4O[C@H]2/C(=N/NC(=O)c2ccccc2)CC[C@@]3(O)[C@H]1C5 [Naloxone benzoylhydrazone]	0.0497
NC(N)=NOCC[C@H](N)C(=O)O [L-Canavanine sulfate]	-0.0699
